Data on two molecules can be found in patent US20230416400A1 (published 2023).

Sequences of proteins named here, by UniProt entry; tags and fusion partners are left off. A change or cut given only in a name is not applied to a line headed by its entry. A line that says so, or that is headed by a name, gives the form on record, which may keep a tag or linker.
human BRAF V600E protein (P15056, form named): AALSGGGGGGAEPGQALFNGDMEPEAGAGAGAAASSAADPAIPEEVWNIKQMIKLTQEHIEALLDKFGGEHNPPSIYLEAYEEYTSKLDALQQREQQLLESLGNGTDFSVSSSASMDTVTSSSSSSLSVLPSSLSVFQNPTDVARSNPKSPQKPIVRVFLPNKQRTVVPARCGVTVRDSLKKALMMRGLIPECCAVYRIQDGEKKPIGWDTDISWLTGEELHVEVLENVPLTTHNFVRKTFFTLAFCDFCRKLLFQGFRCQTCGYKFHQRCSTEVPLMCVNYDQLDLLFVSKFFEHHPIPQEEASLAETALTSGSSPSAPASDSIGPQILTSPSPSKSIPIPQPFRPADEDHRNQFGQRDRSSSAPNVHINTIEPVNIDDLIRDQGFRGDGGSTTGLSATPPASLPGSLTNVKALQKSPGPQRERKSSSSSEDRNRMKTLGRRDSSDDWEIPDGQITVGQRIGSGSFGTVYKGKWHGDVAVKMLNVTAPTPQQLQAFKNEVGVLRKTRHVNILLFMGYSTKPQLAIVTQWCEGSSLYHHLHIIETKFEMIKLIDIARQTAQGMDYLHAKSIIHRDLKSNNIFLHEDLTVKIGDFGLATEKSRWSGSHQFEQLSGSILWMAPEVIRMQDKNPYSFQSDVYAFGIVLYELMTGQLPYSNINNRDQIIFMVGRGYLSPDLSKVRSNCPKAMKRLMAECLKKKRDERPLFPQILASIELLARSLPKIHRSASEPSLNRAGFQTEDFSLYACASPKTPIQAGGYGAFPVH

The target of experiment [1] is T1, BRAF V600E peptide (biotinylated synthetic peptide including the amino acids of and surrounding the BRAF V600E mutation) (human).
T1 sequence (peptide, biotinylated (position not stated)): GLATEKSRWSG
Description: BLI (Octet Red96), biotinylated peptide on SAX sensors, antibody 2.78 to 33.3 nM.

In experiment [2] the target is human BRAF V600E protein (human) (UniProt P15056). The experiment in a line: IHC, FLEX protocol, non-purified antibody.

These are yes or no findings as the source states them, for the method shown. Some entries that bind do so weakly or less than the wild type. No end group written: not given here.

B1: chimeric BRAF V600E antibody (mouse variable domains, rabbit IgG heavy chain and rabbit kappa1 light chain constant domains; heavy chain SEQ ID NO:2 and light … (antibody, V domains shown)
VH: QAYLQQSGAELVRPGASVKMSCKASGYTFTSYNMHWIKQTPRQGLEWIGAIYPGNGDTSYNQKFKGKATLTVDRSSNTAYMQLSSLTSEDSAVYFCARDGISPWGQGTLVTVSS
VL: DIKMTQSPSSMYASLGERVTITCKASQDINRYLSWFQQKPGKSPKTLIYRANRVLDGVPSRFSGSGSGQDYSLTISSLESEDMGIYYCLHYDEYPYTYGGGTKLEIKG
For B1, the binding entry in experiment [1] is reported as “binds”.

B2: recombinant mouse anti-human BRAF V600E antibody (mouse IgG2a heavy chain, mouse kappa1 light chain) (antibody, V domains shown)
VH: QAYLQQSGAELVRPGASVKMSCKASGYTFTSYNMHWIKQTPRQGLEWIGAIYPGNGDTSYNQKFKGKATLTVDRSSNTAYMQLSSLTSEDSAVYFCARDGISPWGQGTLVTVSS
VL: DIKMTQSPSSMYASLGERVTITCKASQDINRYLSWFQQKPGKSPKTLIYRANRVLDGVPSRFSGSGSGQDYSLTISSLESEDMGIYYCLHYDEYPYTYGGGTKLEIK
In the case of B2, the binding result in experiment [1] and in experiment [2] was “binds” throughout.
